These are yes or no findings as the source states them, for the method shown. Binding seen in cells or lysates may run through a third protein. These calls come from enrichment with a bait or labelling near it, and not all partners need be listed.
T1: hypermethylated in cancer 1 (HIC1) (human) (UniProt Q14526)
T1 sequence: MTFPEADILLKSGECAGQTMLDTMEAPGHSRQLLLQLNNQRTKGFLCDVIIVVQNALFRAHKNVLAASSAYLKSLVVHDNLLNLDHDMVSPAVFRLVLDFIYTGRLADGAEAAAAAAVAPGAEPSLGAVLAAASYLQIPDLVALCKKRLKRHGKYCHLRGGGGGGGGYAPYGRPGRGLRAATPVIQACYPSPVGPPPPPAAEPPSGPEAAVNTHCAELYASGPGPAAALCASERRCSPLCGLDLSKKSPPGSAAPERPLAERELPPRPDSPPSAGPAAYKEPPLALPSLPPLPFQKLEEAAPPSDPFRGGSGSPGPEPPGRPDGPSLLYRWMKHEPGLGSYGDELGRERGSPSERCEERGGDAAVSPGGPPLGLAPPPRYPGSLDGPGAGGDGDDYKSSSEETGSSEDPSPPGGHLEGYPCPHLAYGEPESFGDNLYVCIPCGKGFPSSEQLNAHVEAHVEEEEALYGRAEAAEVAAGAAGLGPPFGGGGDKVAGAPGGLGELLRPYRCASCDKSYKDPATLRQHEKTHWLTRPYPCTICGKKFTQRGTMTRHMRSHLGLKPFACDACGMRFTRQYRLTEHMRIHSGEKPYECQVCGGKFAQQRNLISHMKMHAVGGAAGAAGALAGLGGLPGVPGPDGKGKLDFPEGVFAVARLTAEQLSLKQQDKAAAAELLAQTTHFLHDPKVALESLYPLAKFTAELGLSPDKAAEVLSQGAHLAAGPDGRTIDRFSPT

Protein sequences, listed by entry. Tags and fused reporters are not part of them.
UniProt Q07955: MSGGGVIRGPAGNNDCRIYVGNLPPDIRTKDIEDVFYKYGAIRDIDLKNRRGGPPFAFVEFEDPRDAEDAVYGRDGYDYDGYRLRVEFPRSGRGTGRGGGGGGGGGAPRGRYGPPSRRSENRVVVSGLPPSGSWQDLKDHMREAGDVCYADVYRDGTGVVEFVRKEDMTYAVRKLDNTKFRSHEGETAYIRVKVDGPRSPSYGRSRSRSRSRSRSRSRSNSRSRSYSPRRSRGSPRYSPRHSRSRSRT
UniProt Q5VT52: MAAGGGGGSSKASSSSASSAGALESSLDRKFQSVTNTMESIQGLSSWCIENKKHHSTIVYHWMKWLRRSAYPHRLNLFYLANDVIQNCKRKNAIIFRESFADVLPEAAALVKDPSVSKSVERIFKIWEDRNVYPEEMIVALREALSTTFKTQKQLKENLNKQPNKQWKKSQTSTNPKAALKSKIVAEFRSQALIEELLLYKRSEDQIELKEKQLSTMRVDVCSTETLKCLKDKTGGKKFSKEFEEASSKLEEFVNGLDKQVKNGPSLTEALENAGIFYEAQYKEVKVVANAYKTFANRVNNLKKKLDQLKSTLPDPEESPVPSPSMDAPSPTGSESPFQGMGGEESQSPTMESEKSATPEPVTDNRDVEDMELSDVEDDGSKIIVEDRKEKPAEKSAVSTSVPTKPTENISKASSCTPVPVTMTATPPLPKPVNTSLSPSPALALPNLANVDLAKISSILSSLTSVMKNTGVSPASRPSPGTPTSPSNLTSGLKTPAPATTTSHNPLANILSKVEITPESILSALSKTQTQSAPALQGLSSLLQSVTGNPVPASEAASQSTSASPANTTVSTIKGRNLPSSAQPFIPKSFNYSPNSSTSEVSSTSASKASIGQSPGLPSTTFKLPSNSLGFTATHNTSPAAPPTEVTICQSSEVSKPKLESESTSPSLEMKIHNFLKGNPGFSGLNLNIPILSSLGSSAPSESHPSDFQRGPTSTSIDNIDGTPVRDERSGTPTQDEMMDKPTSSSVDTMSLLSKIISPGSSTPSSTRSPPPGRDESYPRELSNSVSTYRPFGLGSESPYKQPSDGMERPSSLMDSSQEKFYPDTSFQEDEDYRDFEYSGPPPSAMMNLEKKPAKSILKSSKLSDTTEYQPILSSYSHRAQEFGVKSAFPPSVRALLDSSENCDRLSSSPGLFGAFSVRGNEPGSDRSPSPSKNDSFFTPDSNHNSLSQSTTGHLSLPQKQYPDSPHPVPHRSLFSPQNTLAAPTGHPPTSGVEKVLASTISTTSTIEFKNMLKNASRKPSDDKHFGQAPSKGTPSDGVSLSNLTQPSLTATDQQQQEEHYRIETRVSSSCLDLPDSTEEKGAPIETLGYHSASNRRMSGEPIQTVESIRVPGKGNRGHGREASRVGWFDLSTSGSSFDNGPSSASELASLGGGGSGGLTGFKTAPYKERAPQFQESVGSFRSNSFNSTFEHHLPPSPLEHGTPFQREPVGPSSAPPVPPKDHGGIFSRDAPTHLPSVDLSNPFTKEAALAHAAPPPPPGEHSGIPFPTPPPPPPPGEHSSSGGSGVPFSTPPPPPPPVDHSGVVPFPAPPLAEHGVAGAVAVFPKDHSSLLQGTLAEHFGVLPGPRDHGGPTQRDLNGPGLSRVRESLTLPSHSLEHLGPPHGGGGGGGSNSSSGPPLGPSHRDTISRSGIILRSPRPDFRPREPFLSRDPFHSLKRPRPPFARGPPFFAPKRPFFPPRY
UniProt P07814: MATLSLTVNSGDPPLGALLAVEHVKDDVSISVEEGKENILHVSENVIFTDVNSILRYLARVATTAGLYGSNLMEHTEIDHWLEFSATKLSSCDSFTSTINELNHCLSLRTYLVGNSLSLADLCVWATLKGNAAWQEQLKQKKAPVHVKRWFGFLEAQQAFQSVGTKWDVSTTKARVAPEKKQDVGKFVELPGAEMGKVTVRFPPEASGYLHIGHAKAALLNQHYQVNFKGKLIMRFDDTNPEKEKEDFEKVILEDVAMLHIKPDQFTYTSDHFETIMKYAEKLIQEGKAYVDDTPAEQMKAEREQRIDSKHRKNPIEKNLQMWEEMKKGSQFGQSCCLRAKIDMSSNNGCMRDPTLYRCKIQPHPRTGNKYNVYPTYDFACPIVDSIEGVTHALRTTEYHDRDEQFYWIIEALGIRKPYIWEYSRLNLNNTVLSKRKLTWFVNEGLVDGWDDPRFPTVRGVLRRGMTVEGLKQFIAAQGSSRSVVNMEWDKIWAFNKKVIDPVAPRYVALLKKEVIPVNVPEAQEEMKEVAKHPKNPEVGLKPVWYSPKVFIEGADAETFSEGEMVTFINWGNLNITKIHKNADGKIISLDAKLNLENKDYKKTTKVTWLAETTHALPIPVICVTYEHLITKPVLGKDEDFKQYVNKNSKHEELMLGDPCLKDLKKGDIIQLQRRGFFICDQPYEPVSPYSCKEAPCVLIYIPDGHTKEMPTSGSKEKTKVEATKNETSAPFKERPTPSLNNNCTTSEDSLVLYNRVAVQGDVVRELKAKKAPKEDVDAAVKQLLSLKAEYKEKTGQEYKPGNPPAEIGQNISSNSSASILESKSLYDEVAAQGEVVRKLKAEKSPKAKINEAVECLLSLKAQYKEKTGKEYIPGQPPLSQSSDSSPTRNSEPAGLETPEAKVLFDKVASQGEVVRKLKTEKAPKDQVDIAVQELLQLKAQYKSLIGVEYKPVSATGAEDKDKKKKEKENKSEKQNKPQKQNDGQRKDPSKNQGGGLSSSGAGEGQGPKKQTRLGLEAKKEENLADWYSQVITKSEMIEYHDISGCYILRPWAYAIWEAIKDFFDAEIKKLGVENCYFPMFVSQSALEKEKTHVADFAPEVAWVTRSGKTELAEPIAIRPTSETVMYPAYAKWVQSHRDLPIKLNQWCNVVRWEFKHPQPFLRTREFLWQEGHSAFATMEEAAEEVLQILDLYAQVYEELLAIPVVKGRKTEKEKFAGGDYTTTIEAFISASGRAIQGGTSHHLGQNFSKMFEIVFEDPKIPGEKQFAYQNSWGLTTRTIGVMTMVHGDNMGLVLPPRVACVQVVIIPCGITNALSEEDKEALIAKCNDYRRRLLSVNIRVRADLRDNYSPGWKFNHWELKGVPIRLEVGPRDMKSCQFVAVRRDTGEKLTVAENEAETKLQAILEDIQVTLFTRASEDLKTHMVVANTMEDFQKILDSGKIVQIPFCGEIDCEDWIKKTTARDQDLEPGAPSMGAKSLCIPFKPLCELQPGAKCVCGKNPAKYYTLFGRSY
UniProt Q9NYF8: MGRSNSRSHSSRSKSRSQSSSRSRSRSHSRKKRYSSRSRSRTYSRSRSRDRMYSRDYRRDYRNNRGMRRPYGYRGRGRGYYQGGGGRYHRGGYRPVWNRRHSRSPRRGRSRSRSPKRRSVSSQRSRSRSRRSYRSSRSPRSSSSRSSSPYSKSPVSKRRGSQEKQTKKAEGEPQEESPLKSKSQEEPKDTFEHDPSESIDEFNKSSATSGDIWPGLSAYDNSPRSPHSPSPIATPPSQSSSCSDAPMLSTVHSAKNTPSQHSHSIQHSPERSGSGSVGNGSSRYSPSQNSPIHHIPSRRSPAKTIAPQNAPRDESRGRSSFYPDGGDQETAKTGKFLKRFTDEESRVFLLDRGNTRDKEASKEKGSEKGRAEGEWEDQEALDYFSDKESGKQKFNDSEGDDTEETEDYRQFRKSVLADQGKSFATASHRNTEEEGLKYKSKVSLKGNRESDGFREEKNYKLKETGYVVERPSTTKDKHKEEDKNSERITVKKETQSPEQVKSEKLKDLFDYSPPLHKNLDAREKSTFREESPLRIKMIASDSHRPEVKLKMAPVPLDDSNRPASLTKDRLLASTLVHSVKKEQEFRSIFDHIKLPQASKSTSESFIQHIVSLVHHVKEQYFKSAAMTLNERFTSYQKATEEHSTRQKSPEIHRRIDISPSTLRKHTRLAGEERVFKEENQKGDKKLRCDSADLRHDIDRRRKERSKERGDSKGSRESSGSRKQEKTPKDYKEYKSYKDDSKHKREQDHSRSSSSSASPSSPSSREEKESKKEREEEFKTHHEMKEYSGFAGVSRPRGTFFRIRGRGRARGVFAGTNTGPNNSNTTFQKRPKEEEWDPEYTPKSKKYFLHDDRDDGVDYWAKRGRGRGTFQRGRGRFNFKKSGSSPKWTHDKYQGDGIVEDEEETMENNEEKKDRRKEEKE
UniProt Q15046: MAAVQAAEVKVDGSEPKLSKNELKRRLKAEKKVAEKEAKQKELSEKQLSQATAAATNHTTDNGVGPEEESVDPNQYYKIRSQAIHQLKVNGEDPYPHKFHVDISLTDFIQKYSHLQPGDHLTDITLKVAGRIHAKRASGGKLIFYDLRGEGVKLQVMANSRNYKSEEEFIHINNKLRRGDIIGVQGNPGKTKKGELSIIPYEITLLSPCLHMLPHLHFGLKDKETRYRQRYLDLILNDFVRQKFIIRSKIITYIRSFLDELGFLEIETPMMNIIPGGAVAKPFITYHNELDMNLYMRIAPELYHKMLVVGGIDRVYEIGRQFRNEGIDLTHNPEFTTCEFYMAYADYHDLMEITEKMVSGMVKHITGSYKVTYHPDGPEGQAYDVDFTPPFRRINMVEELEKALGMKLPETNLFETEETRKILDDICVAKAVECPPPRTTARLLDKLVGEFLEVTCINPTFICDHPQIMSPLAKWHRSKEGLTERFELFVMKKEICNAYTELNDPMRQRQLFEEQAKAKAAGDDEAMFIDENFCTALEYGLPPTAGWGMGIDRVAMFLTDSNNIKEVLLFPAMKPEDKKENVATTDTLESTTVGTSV
UniProt Q9P2J5: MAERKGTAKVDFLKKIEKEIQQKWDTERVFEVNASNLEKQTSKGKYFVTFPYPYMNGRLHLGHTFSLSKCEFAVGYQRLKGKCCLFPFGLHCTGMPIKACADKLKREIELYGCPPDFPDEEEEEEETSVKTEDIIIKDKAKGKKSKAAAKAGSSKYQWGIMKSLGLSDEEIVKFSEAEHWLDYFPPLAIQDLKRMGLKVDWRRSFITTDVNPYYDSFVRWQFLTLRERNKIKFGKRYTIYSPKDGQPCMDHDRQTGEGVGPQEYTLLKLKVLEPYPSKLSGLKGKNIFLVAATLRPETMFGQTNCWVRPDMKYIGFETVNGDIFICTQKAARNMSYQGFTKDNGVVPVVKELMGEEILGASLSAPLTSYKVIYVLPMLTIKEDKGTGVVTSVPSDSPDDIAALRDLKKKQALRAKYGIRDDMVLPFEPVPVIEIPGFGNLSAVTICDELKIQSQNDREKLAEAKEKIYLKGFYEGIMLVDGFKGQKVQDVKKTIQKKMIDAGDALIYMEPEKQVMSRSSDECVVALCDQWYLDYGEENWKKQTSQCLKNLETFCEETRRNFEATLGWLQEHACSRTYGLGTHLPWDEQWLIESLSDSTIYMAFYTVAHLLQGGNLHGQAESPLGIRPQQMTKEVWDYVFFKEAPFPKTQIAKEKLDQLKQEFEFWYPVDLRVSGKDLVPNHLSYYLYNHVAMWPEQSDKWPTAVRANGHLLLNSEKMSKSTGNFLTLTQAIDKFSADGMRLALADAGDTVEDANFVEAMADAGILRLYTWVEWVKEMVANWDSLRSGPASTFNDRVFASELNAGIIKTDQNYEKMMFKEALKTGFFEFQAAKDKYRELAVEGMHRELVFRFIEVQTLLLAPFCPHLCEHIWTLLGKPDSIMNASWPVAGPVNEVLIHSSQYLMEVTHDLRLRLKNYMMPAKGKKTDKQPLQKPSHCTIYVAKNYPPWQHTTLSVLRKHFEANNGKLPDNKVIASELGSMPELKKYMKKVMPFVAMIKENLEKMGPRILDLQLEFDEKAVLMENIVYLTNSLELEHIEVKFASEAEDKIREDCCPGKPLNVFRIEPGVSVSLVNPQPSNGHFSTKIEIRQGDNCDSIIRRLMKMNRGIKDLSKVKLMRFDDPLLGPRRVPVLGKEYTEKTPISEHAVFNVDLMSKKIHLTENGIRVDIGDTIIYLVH


Molecular target: T1, hypermethylated in cancer 1 (HIC1) (human)
Experiment: affinity purification with mass spectrometry

| Molecule | binding |
| --- | --- |
| splicing factor SRSF1 (from UniProt Q07955 1-248) | binds |
| RPRD2 (from UniProt Q5VT52 1-1461) | binds |
| EPRS (from UniProt P07814 1-1512) (enzyme) | binds |
| BCLAF1 (from UniProt Q9NYF8 1-920) | binds |
| E3 Ubiquitin-Protein Ligase HERC2 (from UniProt O95714 1-4834) (enzyme) | binds |
| PARP13 (from UniProt Q7Z2W4 1-902) | binds |
| ARS-interacting multi-functional protein AIMP1 (protein, UniProt Q12904 1-312) MANNDAVLKRLEQKGAEADQIIEYLKQQVSLLKEKAILQATLREEKKLRVENAKLKKEIEELKQELIQAEIQNGVKQIPFPSGTPLHANSMVSENVIQSTAVTTVSSGTKEQIKGGTGDEKKAKEKIEKKGEKKEKKQQSIAGSADSKPIDVSRLDLRIGCIITARKHPDADSLYVEEVDVGEIAPRTVVSGLVNHVPLEQMQNRMVILLCNLKPAKMRGVLSQAMVMCASSPEKIEILAPPNGSVPGDRITFDAFPGEPDKELNPKKKIWEQIQPDLHTNDECVATYKGVPFEVKGKGVCRAQTMSNSGIK | binds |
| ARS-interacting multi-functional protein AIMP2 (protein, UniProt Q13155 1-320) MPMYQVKPYHGGGAPLRVELPTCMYRLPNVHGRSYGPAPGAGHVQEESNLSLQALESRQDDILKRLYELKAAVDGLSKMIQTPDADLDVTNIIQADEPTTLTTNALDLNSVLGKDYGALKDIVINANPASPPLSLLVLHRLLCEHFRVLSTVHTHSSVKSVPENLLKCFGEQNKKQPRQDYQLGFTLIWKNVPKTQMKFSIQTMCPIEGEGNIARFLFSLFGQKHNAVNATLIDSWVDIAIFQLKEGSSKEKAAVFRSMNSALGKSPWLAGNELTVADVVLWSVLQQIGGCSVTVPANVQRWMRSCENLAPFNTALKLLK | binds |
| IARS (enzyme, UniProt P41252 1-1262) MLQQVPENINFPAEEEKILEFWTEFNCFQECLKQSKHKPKFTFYDGPPFATGLPHYGHILAGTIKDIVTRYAHQSGFHVDRRFGWDCHGLPVEYEIDKTLGIRGPEDVAKMGITEYNNQCRAIVMRYSAEWKSTVSRLGRWIDFDNDYKTLYPQFMESVWWVFKQLYDKGLVYRGVKVMPFSTACNTPLSNFESHQNYKDVQDPSVFVTFPLEEDETVSLVAWTTTPWTLPSNLAVCVNPEMQYVKIKDVARGRLLILMEARLSALYKLESDYEILERFPGAYLKGKKYRPLFDYFLKCKENGAFTVLVDNYVKEEEGTGVVHQAPYFGAEDYRVCMDFNIIRKDSLPVCPVDASGCFTTEVTDFAGQYVKDADKSIIRTLKEQGRLLVATTFTHSYPFCWRSDTPLIYKAVPSWFVRVENMVDQLLRNNDLCYWVPELVREKRFGNWLKDARDWTISRNRYWGTPIPLWVSDDFEEVVCIGSVAELEELSGAKISDLHRESVDHLTIPSRCGKGSLHRISEVFDCWFESGSMPYAQVHYPFENKREFEDAFPADFIAEGIDQTRGWFYTLLVLATALFGQPPFKNVIVNGLVLASDGQKMSKRKKNYPDPVSIIQKYGADALRLYLINSPVVRAENLRFKEEGVRDVLKDVLLPWYNAYRFLIQNVLRLQKEEEIEFLYNENTVRESPNITDRWILSFMQSLIGFFETEMAAYRLYTVVPRLVKFVDILTNWYVRMNRRRLKGENGMEDCVMALETLFSVLLSLCRLMAPYTPFLTELMYQNLKVLIDPVSVQDKDTLSIHYLMLPRVREELIDKKTESAVSQMQSVIELGRVIRDRKTIPIKYPLKEIVVIHQDPEALKDIKSLEKYIIEELNVRKVTLSTDKNKYGIRLRAEPDHMVLGKRLKGAFKAVMTSIKQLSSEELEQFQKTGTIVVEGHELHDEDIRLMYTFDQATGGTAQFEAHSDAQALVLLDVTPDQSMVDEGMAREVINRIQKLRKKCNLVPTDEITVYYKAKSEGTYLNSVIESHTEFIFTTIKAPLKPYPVSPSDKVLIQEKTQLKGSELEITLTRGSSLPGPACAYVNLNICANGSEQGGVLLLENPKGDNRLDLLKLKSVVTSIFGVKNTELAVFHDETEIQNQTDLLSLSGKTLCVTAGSAPSLINSSSTLLCQYINLQLLNAKPQECLMGTVGTLLLENPLGQNGLTHQGLLYEAAKVFGLRSRKLKLFLNETQTQEITEDIPVKTLNMKTVYVSVLPTTADF | binds |
| RPRD1B (CREPT) (protein, UniProt Q9NQG5 1-326) MSSFSESALEKKLSELSNSQQSVQTLSLWLIHHRKHAGPIVSVWHRELRKAKSNRKLTFLYLANDVIQNSKRKGPEFTREFESVLVDAFSHVAREADEGCKKPLERLLNIWQERSVYGGEFIQQLKLSMEDSKSPPPKATEEKKSLKRTFQQIQEEEDDDYPGSYSPQDPSAGPLLTEELIKALQDLENAASGDATVRQKIASLPQEVQDVSLLEKITDKEAAERLSKTVDEACLLLAEYNGRLAAELEDRRQLARMLVEYTQNQKDVLSEKEKKLEEYKQKLARVTQVRKELKSHIQSLPDLSLLPNVTGGLAPLPSAGDLFSTD | binds |

The remaining lines, values ahead:

| binding | Molecule |
| --- | --- |
| binds | KARS (from UniProt Q15046 1-597) (enzyme) |
| binds | LARS (from UniProt Q9P2J5 1-1176) (enzyme) |
| binds | DHX30 (protein, UniProt Q7L2E3 1-1194) MFSLDSFRKDRAQHRQRQCKLPPPRLPPMCVNPTPGGTISRASRDLLKEFPQPKNLLNSVIGRALGISHAKDKLVYVHTNGPKKKKVTLHIKWPKSVEVEGYGSKKIDAERQAAAAACQLFKGWGLLGPRNELFDAAKYRVLADRFGSPADSWWRPEPTMPPTSWRQLNPESIRPGGPGGLSRSLGREEEEDEEEELEEGTIDVTDFLSMTQQDSHAPLRDSRGSSFEMTDDDSAIRALTQFPLPKNLLAKVIQIATSSSTAKNLMQFHTVGTKTKLSTLTLLWPCPMTFVAKGRRKAEAENKAAALACKKLKSLGLVDRNNEPLTHAMYNLASLRELGETQRRPCTIQVPEPILRKIETFLNHYPVESSWIAPELRLQSDDILPLGKDSGPLSDPITGKPYVPLLEAEEVRLSQSLLELWRRRGPVWQEAPQLPVDPHRDTILNAIEQHPVVVISGDTGCGKTTRIPQLLLERYVTEGRGARCNVIITQPRRISAVSVAQRVSHELGPSLRRNVGFQVRLESKPPSRGGALLFCTVGILLRKLQSNPSLEGVSHVIVDEVHERDVNTDFLLILLKGLQRLNPALRLVLMSATGDNERFSRYFGGCPVIKVPGFMYPVKEHYLEDILAKLGKHQYLHRHRHHESEDECALDLDLVTDLVLHIDARGEPGGILCFLPGWQEIKGVQQRLQEALGMHESKYLILPVHSNIPMMDQKAIFQQPPVGVRKIVLATNIAETSITINDIVHVVDSGLHKEERYDLKTKVSCLETVWVSRANVIQRRGRAGRCQSGFAYHLFPRSRLEKMVPFQVPEILRTPLENLVLQAKIHMPEKTAVEFLSKAVDSPNIKAVDEAVILLQEIGVLDQREYLTTLGQRLAHISTDPRLAKAIVLAAIFRCLHPLLVVVSCLTRDPFSSSLQNRAEVDKVKALLSHDSGSDHLAFVRAVAGWEEVLRWQDRSSRENYLEENLLYAPSLRFIHGLIKQFSENIYEAFLVGKPSDCTLASAQCNEYSEEEELVKGVLMAGLYPNLIQVRQGKVTRQGKFKPNSVTYRTKSGNILLHKSTINREATRLRSRWLTYFMAVKSNGSVFVRDSSQVHPLAVLLLTDGDVHIRDDGRRATISLSDSDLLRLEGDSRTVRLLKELRRALGRMVERSLRSELAALPPSVQEEHGQLLALLAELLRGPCGSFDVRKTADD |
| binds | DARS (enzyme, UniProt P14868 1-501) MPSASASRKSQEKPREIMDAAEDYAKERYGISSMIQSQEKPDRVLVRVRDLTIQKADEVVWVRARVHTSRAKGKQCFLVLRQQQFNVQALVAVGDHASKQMVKFAANINKESIVDVEGVVRKVNQKIGSCTQQDVELHVQKIYVISLAEPRLPLQLDDAVRPEAEGEEEGRATVNQDTRLDNRVIDLRTSTSQAVFRLQSGICHLFRETLINKGFVEIQTPKIISAASEGGANVFTVSYFKNNAYLAQSPQLYKQMCICADFEKVFSIGPVFRAEDSNTHRHLTEFVGLDIEMAFNYHYHEVMEEIADTMVQIFKGLQERFQTEIQTVNKQFPCEPFKFLEPTLRLEYCEALAMLREAGVEMGDEDDLSTPNEKLLGHLVKEKYDTDFYILDKYPLAVRPFYTMPDPRNPKQSNSYDMFMRGEEILSGAQRIHDPQLLTERALHHGIDLEKIKAYIDSFRFGAPPHAGGGIGLERVTMLFLGLHNVRQTSMFPRDPKRLTP |
